These are yes or no findings as the source states them, for the method shown. Some entries that bind do so weakly or less than the wild type.
How the values were obtained:
[1] = target: aggregated tau in FFPE brain sections of an Alzheimer's disease patient (human) (UniProt P10636); assay: IHC on FFPE brain sections
[2] = target: aggregate tau fibrils purified from AD brain homogenates (human) (UniProt P10636); assay: ELISA on coated tau fibrils purified from AD brain
[3] = target: aggregated tau in FFPE brain sections of a normal individual (minimal tau aggregation) (human) (UniProt P10636); assay: IHC on FFPE brain sections, semi quantitative score (mild, +)
[4] = target: aggregated tau in FFPE brain sections of an Alzheimer's disease patient (human) (UniProt P10636); assay: IHC on FFPE brain sections, semi quantitative score (severe, +++)

Sequences of proteins named here, by UniProt entry; tags and fusion partners are left off. A change or cut given only in a name is not applied to a line headed by its entry. A line that says so, or that is headed by a name, gives the form on record, which may keep a tag or linker.
aggregated tau in FFPE brain sections of an Alzheimer's disease patient (P10636, form named): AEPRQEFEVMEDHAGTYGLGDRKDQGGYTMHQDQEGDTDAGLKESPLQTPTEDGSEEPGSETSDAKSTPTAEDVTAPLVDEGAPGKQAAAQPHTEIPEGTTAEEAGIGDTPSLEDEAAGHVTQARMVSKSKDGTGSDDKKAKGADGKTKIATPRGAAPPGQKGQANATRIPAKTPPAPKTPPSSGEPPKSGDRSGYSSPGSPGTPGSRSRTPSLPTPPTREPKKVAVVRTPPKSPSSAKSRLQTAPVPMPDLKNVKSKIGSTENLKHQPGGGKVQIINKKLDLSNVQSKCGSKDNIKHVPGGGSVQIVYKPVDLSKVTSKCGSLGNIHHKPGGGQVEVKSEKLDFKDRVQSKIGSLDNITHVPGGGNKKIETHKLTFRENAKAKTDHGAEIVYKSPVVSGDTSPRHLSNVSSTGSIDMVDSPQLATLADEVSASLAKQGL

Measured: binding

B1: Exemplified anti-Tau antibody (having both HCs of SEQ ID NO.68 and both LCs of SEQ ID NO.67) (antibody, human IgG4 S228P, kappa, F234A L235A, V domains shown)
VH: EVQLVQSGAEVKKPGESLKISCKGSGYTFSNYWIEWVRQMPGKGLEWMGEILPGSDSIKYEKNFKGQVTISADKSISTAYLQWSSLKASDTAMYYCARRGNYVDDWGQGTLVTVSS
VL: EIVLTQSPGTLSLSPGERATLSCRSSQSLVHSNQNTYLHWYQQKPGQAPRLLIYKVDNRFSGIPDRFSGSGSGTDFTLTISRLEPEDFAVYYCSQSTLVPLTFGGGTKVEIKR
binds: all assays above

From patent US20190161539A1
